Details: for final drug-to-lipid molar ratio: after loading; for loading efficiency into liposomes: drug:lipid molar ratio 1:4.6, 75 °C, 1 h; for efficiency of internal conversion to the water-soluble (-G^W) form: inside liposomes, after 1 h

## CCC1(O)C(=O)OCc2c1cc1n(c2=O)Cc2cc3c(NC(=O)OCc4ccc(OC5OC(C(=O)O)C(O)C(O)C5O)cc4)cccc3nc2-1 [9AC-G^W, 9-aminocamptothecin-β-D-glucuronide]
  final drug-to-lipid molar ratio: 14.9%
  loading efficiency into liposomes: 71.3%
  efficiency of internal conversion to the water-soluble (-G^W) form: 96.6%

## CCC1(O)C(=O)OCc2c1cc1n(c2=O)Cc2c-1nc1ccc(OCc3ccc(OC4OC(C(=O)O)C(O)C(O)C4O)c([N+](=O)[O-])c3)c3c1c2CCC3 [BQC-G^W, 5,6-dihydro-4H-benzo[de]quinoline-camptothecin-β-D-glucuronide]
  final drug-to-lipid molar ratio: 12.1%
  loading efficiency into liposomes: 56.2%
  efficiency of internal conversion to the water-soluble (-G^W) form: 99.6%

Source: PMC5945669, “Reversible glycosidic switch for secure delivery of molecular nanocargos” (Nature Communications, 2018)
